Some of these results come from one statement about several compounds together.
Legend:
[1] = system: bovine vascular smooth muscle cells, porcine vascular smooth muscle cells, bovine capillary endothelial cells or bovine aortic endothelial cells; experiment: Degree of binding of TGF-β to cells, summary of FIGS. 1 and 2 and Tables 3 to 6; format: cell-based; settings: concentration of 100 μg/ml; FIGS. 1 and 2, Tables 4 to 6
[2] = system: bovine capillary endothelial cells (BCEC); experiment: Migration of bovine vascular endothelial cells (release of active TGF-β from latent TGF-β); format: cell-based; settings: 24 hours, concentration of 50 μg/ml
Protocol: The following procedure was carried out according to the method of Sato, et al. [Journal of Cell Biology, 123, 1249 (1993)]. were scraped with a razor, the remaining cells were washed with PBS (−), followed by incubation in DMEM containing 0.1% BSA and a test compound. After 24 hours, the number of the cells which migrated in four fileds of a microscope (IX70, Olympus) was counted for each dish. The test compound was added in the same manner as in Test Example 1. The migration of cells was inhibited and the release of active TGF-β from latent TGF-β was promoted by Compounds 3 and 5 to 9 at a concentration of 50 μg/ml.

Substance: H-LSTSKTIDMELVKRKRIEAIRGC-OH [Compound 3]
- degree of binding of TGF-β to cells [1]: increased
- migration of cells [2]: inhibited
